The campaign covered roughly 220,000 compounds. About 770 (0.35%) were called active. Inconclusive means that the source gave no clear call. Such entries were picked first, then a sample of the others. No stated cut-off is given here; in the data, active means binding response below about 49% or above about 150%; inconclusive means no clear call, values can overlap the other calls; inactive means in between.
The molecules below were run against Guanine nucleotide-binding protein G(o) subunit alpha (Homo sapiens) (UniProt P09471) (assay: RGS7-Galphao binding modulators, primary screen, biochemical, multiplexed bead flow cytometry (AID 1439;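 further: fluorescent Galphao held in activated GDP-AlF4 state binding bead-coupled RGS7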)). Details: at 10 µM, actives lie on both sides.

Chains of the proteins cited; added tags and fusions are not shown.
UniProt P09471, whole entry, looked up: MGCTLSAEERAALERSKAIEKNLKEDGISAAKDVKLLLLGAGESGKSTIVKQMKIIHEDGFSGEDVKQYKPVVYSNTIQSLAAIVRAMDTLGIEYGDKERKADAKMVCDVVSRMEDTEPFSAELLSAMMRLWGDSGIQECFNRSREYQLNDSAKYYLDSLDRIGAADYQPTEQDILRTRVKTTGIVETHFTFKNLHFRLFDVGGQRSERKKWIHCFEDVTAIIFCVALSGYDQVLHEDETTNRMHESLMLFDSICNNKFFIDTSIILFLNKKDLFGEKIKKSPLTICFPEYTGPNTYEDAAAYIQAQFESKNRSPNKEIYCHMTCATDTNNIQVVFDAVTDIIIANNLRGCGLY

SMILES | binding response (% of control)
Cc1ccsc1/C=N/N1CCOCC1 | inconclusive: 104%
CCCC[C@@H]1CNC(=O)C(=O)N1CC(C)(C)C | inconclusive: 114%
Cc1ccc(C2=NOC(=O)/C2=C\C=C\c2ccccc2)cc1 | inconclusive: 67.8%
N#Cc1ccc(S(=O)(=O)Nc2ccc3ccccc3n2)cc1 | inconclusive: 121%
Cc1onc(-c2ccccc2)c1CNC(=O)Nc1ccccc1 | inconclusive: 18%
O=C(NCCS(=O)CCNC(=O)C(F)(F)F)C(F)(F)F | inactive: 93.7%
COc1ccc(C(CC(=O)N2CCCCC2)c2c(OC)cc(OC)c3ccc(=O)oc23)cc1 (stereo not drawn) | inconclusive: 104%
COc1ccc(C2CC(=O)c3cnn(-c4nc(C)cc(C)n4)c3C2)cc1 (stereo not drawn) | inactive: 102%
COc1ccc2[nH]c(C(=O)N3CCCN(Cc4ccc(F)cc4)CC3)cc2c1 | inconclusive: 84.1%
CCC(c1nnc(SCC(=O)Nc2ccc(S(N)(=O)=O)cc2)n1Cc1ccccc1)N(C)C (stereo not drawn) | inconclusive: 117%
O=c1c(-c2ccc([N+](=O)[O-])cc2)coc2c(O)c(O)ccc12 | inconclusive: 89.3%
Cc1ccc(NCC(=O)N=Nc2c(O)[nH]c3ccc([N+](=O)[O-])cc23)cc1 | inconclusive: 111%
CCC1CCCCN1C(=S)NC1CCCCC1 (stereo not drawn) | inactive: 95.5%
O=C(COc1cccc(Cl)c1)Nc1cc(S(=O)(=O)N2CCOCC2)ccc1N1CCOCC1 | inconclusive: 103%
CC(=O)NC(C(=O)OCC(=O)N(c1ccccc1)c1ccccc1)C(C)C (stereo not drawn) | inconclusive: 99.7%
CN1N=C(C(C)(C)C)CC1=O | inconclusive: 90.5%
OCCNCc1cccc(OCc2ccccc2Cl)c1 | inconclusive: 108%
O=[N+]([O-])c1ccc(CN2CCSCC2)cc1 | inconclusive: 98.9%
O=c1cc(CSc2nnc(C3CC3)n2Cc2ccccc2)nc2sccn12 | inconclusive: 50.1%
CNC(=O)CCSSCCC(=O)NC | inconclusive: 114%

SMILES | binding response (% of control)
O=C(CCCn1c(=O)[nH]c2ccc(Br)cc2c1=O)NCc1ccc(Cl)cc1 | inconclusive: 105%
Cc1csc2ncnc(N3CCN(C(=O)Nc4ccc(OC(F)(F)F)cc4)CC3)c12 | inconclusive: 99%
O=C(NC(=S)N1CCCc2ccccc21)c1ccco1 | inconclusive: 102%
CC(C)(C)NC(=O)NC(=O)COC(=O)Cn1cnc2ccccc2c1=O | inconclusive: 83.5%
COC(=O)/C=C1\NC(=O)C(C)S1 (stereo not drawn) | inactive: 102%
CCN(CC)S(=O)(=O)c1ccc(OC)c(NS(=O)(=O)c2cccc(C(=O)O)c2)c1 | inconclusive: 98.1%
CCCCNC(=O)CSc1nc(O)c(Cc2ccc(OC)cc2)c(=O)[nH]1 | inconclusive: 98.3%
COc1ccc(C(CC(=O)N2CCCC(C)C2)c2c(O)cc(OC)cc2OC)cc1 (stereo not drawn) | inconclusive: 109%
Cc1ccc(/C=C/C(=O)Nc2ccc(O)c3c(=O)cc(-c4ccccc4Cl)oc23)cc1 | inconclusive: 88.4%
CSCCCNC(=S)Nc1cccc(S(=O)(=O)NC2=NCCC2)c1 | inconclusive: 83.1%
CN(CCO)CC(O)CN(c1ccccc1)c1ccccc1 (stereo not drawn) | inconclusive: -191%
COc1ccc(OC)c(/C=N/NC(=O)c2ccc3nc[nH]c3c2)c1 | inconclusive: 79.2%
CC#CCN1c2ccccc2[C@]23C[C@@H](C(=O)OC)N(C(C)=O)C2=NC(C(=O)OC)=C(C(=O)OC)[C@H]13 | inconclusive: 96.7%
CCC(=O)NC(=S)Nc1ccc(NC(=S)NC(=O)c2ccc(C)cc2)cc1 | inactive: 97.3%
CCc1nnc(NS(=O)(=O)c2ccc(NC(=S)NC(=O)c3cccs3)cc2)s1 | inactive: 96.9%
O=C(CCCn1c(=O)[nH]c2cc(Cl)ccc2c1=O)NCCC1=CCCCC1 | inactive: 107%
NC(=O)CC(NC(=O)Cc1ccc(Br)cc1)c1ccc(N2CCN(c3ccc(F)cc3)CC2)c([N+](=O)[O-])c1 (stereo not drawn) | inconclusive: 105%
NS(=O)(=O)c1ccc(NC(=O)CN2C(=O)CCC2=O)cc1 | inconclusive: 91.9%
C[C@@H](C(=O)NCCCCCC(=O)O)n1nnc2ccccc2c1=O | inconclusive: 212%
CCN(CC)NC(=S)Nc1ccccc1 | inactive: 105%

SMILES | binding response (% of control)
CC1(OC(=O)C2CCCC2)C(=O)C=C2C=C(c3ccsc3)N(C3CCCCC3)C=C2C1=O (stereo not drawn) | inconclusive: 72.1%
Cc1nc(SCc2ccc(C(=O)O)cc2)c2c(C)c(C)sc2n1 | inconclusive: 84.5%
Cc1cc(NS(=O)(=O)c2ccc(NC(NC(=O)C(C(F)(F)F)C(F)(F)F)(C(F)(F)F)C(F)(F)F)cc2)no1 | active: 155% [activator]
COCc1cnc(C)nc1N | inactive: 102%
CSc1ccc(-c2nc(CN3CCCCC3c3cccnc3)c(C)o2)cc1 (stereo not drawn) | inactive: 101%
CCN(CC)S(=O)(=O)c1ccc(N2CCCC2)c(C(=O)OCC(=O)Nc2cc(C)on2)c1 | inconclusive: 150%
Cn1ccnc1SCC(=O)c1ccc(O)cc1 | inconclusive: 108%
COc1ccc(C(c2nnnn2C2CCCC2)N2CCC(C)CC2)c(OC)c1 (stereo not drawn) | active: 174% [activator]
CCOc1ccc(CNc2ccc(CNc3ncn[nH]3)cc2)cc1 | inconclusive: 82.3%
O=C(c1ccc(F)cc1)C1CCN(Cc2cn[nH]c2-c2ccc(F)cc2)CC1 | inconclusive: 105%
Cc1nn(C)c(C)c1CN(Cc1nc(CCC(C)C)no1)C(C)C | inactive: 105%
CC1CN(S(=O)(=O)c2ccc(C(=O)O)cc2)CC(C)O1 (stereo not drawn) | inconclusive: 234%
O=C(NCc1ccco1)C1CC(c2cc(C(F)(F)F)cc(C(F)(F)F)c2)=NO1 (stereo not drawn) | inconclusive: 109%
COC(=O)c1ccc(S(=O)(=O)NCc2ccco2)o1 | inconclusive: 98%
O=C1NC(=S)N/C1=C/c1cccnc1 | inconclusive: 107%
COc1ccccc1CCc1nnc(CCC(=O)NC(C)Cc2cccc(C)n2)o1 (stereo not drawn) | inconclusive: -31.1%
FC(F)(F)c1cnc(N2CCSCC2)c(Cl)c1 | inconclusive: 466%
Cc1cc(=O)oc2cc(OCC(=O)Nc3nnc(C4CC4)s3)ccc12 | inconclusive: 170%

Some of the entries so far, in markdown:

| SMILES | binding response (% of control) |
| --- | --- |
| Cc1nn(C)c(C)c1CN(Cc1nc(CCC(C)C)no1)C(C)C | inactive: 105% |
| CC1CN(S(=O)(=O)c2ccc(C(=O)O)cc2)CC(C)O1 (stereo not drawn) | inconclusive: 234% |
